A: 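Whole-parasite assay of Trypanosoma brucei over 72 hours; the read-out is not stated. Compounds at 30 µM. Higher reads as stronger inhibition (inferred: compounds with an IC50 in retests scored well above the rest). Values scatter widely below zero; nearly all retest evidence comes from the higher of the two concentrations used. Of about 64,000 compounds tested this way, about 940 (1.5%) reached 50% or more in at least one test.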
B: 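Assay of Toxoplasma gondii numbers, read through their beta-galactosidase reporter with a colour substrate. Concentration: 10 µM. The record gives no direction; the compounds picked for IC50 retests had high values, so higher reads as fewer parasites. Of about 67,000 compounds tested this way, about 260 (0.38%) reached 50% or more in at least one test.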

The filed quantity is “Percent Effect” (%). The record does not define 0% and 100%; most values in the screen are far below 50% and negative numbers occur (in some assays of this library far below -100). Compounds were drawn at random from those tested, without regard to their results. A dash means the value is not listed here; it may have been measured.

SMILES | A | B
CC(C)c1ncncc1C(=O)N1CCCN(Cc2cccs2)CC1 | 16.49% | 7.754%
O=C1CCc2cc(S(=O)(=O)NCc3cc4n(n3)CCCNC4)ccc2N1 | -62.06% | 17.93%
CN(C)CCCC(=O)NC1CC(C)(C)Cc2nc(C(C)(C)C)ncc21 (centres undefined) | -20.81% | 0.4964%
CCC1c2ccccc2CCN1CCNS(C)(=O)=O (centres undefined) | -3.261% | 0.6885%
Cc1nnc(NCc2ccccc2Cl)c(C#N)c1C | -25.6% | -1.185%
Cc1ccc(C(NCC(=O)N2CCNC(=O)C2)c2ccccc2)cc1 (centres undefined) | -26.05% | 3.644%
CCc1nc(CN(C)C(=O)C2CC(=O)N(c3cccc(O)c3)C2)no1 (centres undefined) | -32.58% | 2.271%
O=C1COC2(CCN(C(=O)c3cnccn3)CC2)CN1CC1CC1 | -67.67% | -0.7979%
CC(C)CN1CCc2[nH]cnc2C12CCN(C(=O)c1ccc[nH]1)CC2 | -27.27% | -
O=C(c1cnc(-c2cnccn2)s1)N1CCCC1Cn1cccn1 (centres undefined) | 7.922% | -3.987%
Cl.Cl.O=C(CN1CCN(CC(O)C2CC2)CC1)NCc1ccc(F)cc1 (centres undefined) | 41.72% | 0.2217%
[H][C@]12CC[C@]([H])(CN(C(=O)C3CCC3)C1)N(C(=O)c1ccccc1SC)C2 | -8.053% | 0.8876%
O=C(O)C(F)(F)F.O=C(O)C(F)(F)F.[H][C@@]12CCN(Cc3ccc4c(c3)OCO4)C[C@]1([H])[C@@H](CN1CCCC1)OC2 | -8.145% | 0.8368%
O=C(c1cc[nH]n1)N1CCc2ncnc(NCc3ccccn3)c2CC1 | -19.45% | -2.704%
O=C(NCCc1ccccc1)C1CCCN(c2ccc3nncn3n2)C1 (centres undefined) | -3.565% | -6.189%
CC(NC(=O)Nc1ccc(N2CCCC2)nc1)c1nncn1C (centres undefined) | -37.51% | 22.46%
COc1cccn(CC(=O)N2CCC3(CCNCC3)C2)c1=O | 9.108% | 14.42%
CN(C)c1nc2c(c(N3CCC4(CC3)CNC(=O)C4)n1)CCCC2 | 23.78% | -2.722%
CS(=O)(=O)N1CCC[C@H]1c1ncnn1-c1ccc2c(c1)OCO2 | -15.15% | 0.5514%
CCN(C(=O)CN1CCn2c(nnc2C2CC2)C1)C1=CCCCC1 | -9.016% | 5.145%
Cl.O=C(c1ccccc1)N1CCC2(CC1)CNc1c(F)cccc12 | -31.94% | -29.99%
NC(=O)c1cc(NC(=O)N2CCOCC2)ccc1F | -9.926% | 11.07%
COc1ccc([C@@H]2CN(C(=O)Cc3cccs3)C[C@H]2NC(C)=O)cc1 | -92.6% | -6.817%
CCn1cc(NC(=O)N2CCN(C(=O)Oc3ccccc3)CC2)cn1 | -20.5% | 16.34%
CCc1nnsc1-c1nc(C(C)C)nn1-c1ccc2c(c1)OCO2 | 11.33% | 0.08654%
CCCC(=O)NCCc1nc(N(C)C)ncc1-c1ccncc1 | 1.895% | 1.298%
CC1CCN(c2nc(O)cc(C3CC(=O)N(C4CCCCC4)C3)n2)CC1 (centres undefined) | 3.876% | 5.191%
O=C(O)C(F)(F)F.[H][C@@]12CN(C(=O)c3ccoc3C)C[C@]1([H])OCCN2c1ncccn1 | -9.285% | 0.09997%
CCCc1ccc(CN2CCC3(CCC(=O)N(C)CC3)CC2)o1 | -40.54% | 21%
C/C=C(/C)C(=O)NS(=O)(=O)c1ccc(Cl)cn1 | -47.41% | -2.935%
N#CCCCS(=O)(=O)NC1(c2ccc(F)cc2)CC1 | -33.81% | -
O=C(CN1CCOC1=O)N(Cc1ccccc1)Cc1nccs1 | -19.5% | -14.71%
Cc1ncnc2c1CCN(C(=O)c1cccn1C)CC2 | -31.38% | 4.958%
Cc1cc(C(=O)Cn2cnnc2[S+](C)[O-])cc(C)c1F (centres undefined) | -59.29% | -10.72%
Cc1cc(C)cc(OCCN(C)Cc2cscn2)c1 | -75.44% | -3.22%
C=C(C)COc1cccc(C(=O)N(C)Cc2cc(CC)no2)c1 | -29.6% | -1.049%
COCCN(C)C1COC2(CCN(Cc3ccccn3)CC2)C1.O=C(O)C(F)(F)F.O=C(O)C(F)(F)F (centres undefined) | -7.621% | 2.438%
Cc1ccc2cc(C(=O)N3CCCCC3c3nc[nH]n3)ccc2n1 (centres undefined) | -30.36% | -5.464%
CCOCCN(CCOCC)c1nc(C)nc2sccc12 | -262.4% | -7.724%
Cc1cc2n(n1)CC(CNCc1ccnc(-n3ccnc3C)c1)CN2 (centres undefined) | 11.06% | -14.4%
Cc1nc(C2CCCN2C(=O)Cc2cccc(F)c2)nc(O)c1C (centres undefined) | -37.56% | 19.33%
COCCN(C)c1ccc(NCc2ccsc2)nc1 | -46.07% | -0.6483%
Cc1nc(CNC(=O)Nc2cc(F)ccc2N2CCN(C)CC2)no1 | -78.59% | -6.592%
CCCC1(CO)CCCN(C(=O)CNC(C)=O)C1 (centres undefined) | -11.22% | -6.724%
CCCS(=O)(=O)N1CCC(NC(=O)c2ccc(C)s2)CC1 | -3.134% | 8.953%
COc1cccc(-c2cc(C(=O)NCCn3nc(C)nc3C)[nH]n2)c1 | 11.32% | 12.13%
CCc1noc(CN2CCN(CC(O)c3ccccc3)CC2)n1 (centres undefined) | -19.6% | 7.982%
CNC(=O)C1(c2cnccn2)CCCN1C(=O)c1ccccn1 (centres undefined) | -8.887% | 16.93%
Cc1nc(CN(CCS(C)(=O)=O)C(C)C)no1 | -3.501% | 2.553%
CN(C)C(=O)CN1CCC2(CCN(Cc3nccs3)CC2)C1=O.O=C(O)C(F)(F)F | -40.65% | 1.709%
CCn1nc(CNC(=O)C2CCCN(C(=O)COC)C2)c2ccccc21 (centres undefined) | 7.204% | -9.46%
CSCC[C@H](NC(C)=O)c1nc(CCc2ccccc2)n[nH]1 | -50.51% | 3.496%
Cc1ccc(CCCC(=O)N2CC(=O)Nc3cccnc32)s1 | -61.72% | -16.22%
O=C(O)C(F)(F)F.[H][C@@]12CCN(C3CCCC3)[C@]1([H])CC[C@H](C(=O)N1CCOCC1)O2 | 3.599% | -26.73%
Cc1n[nH]c(C)c1NC(=O)NCc1ccccn1 | -2.861% | 1.951%
CN(C)c1nc(N)nc(CN2CCC(c3ccccc3)CC2)n1 | -48.99% | 5.044%
COc1ccc2oc(C(C)NC(=O)NCC(C)(C)C(N)=O)c(C)c2c1 (centres undefined) | -36.11% | 9.103%
O=C(Cn1nc2c(cc1=O)CCCC2)NC(C(=O)O)c1ccccc1 (centres undefined) | - | 1.791%
Cn1cc(C(=O)N2CCCC(Cc3cncc4ccccc34)C2)cn1 (centres undefined) | -6.792% | -0.03361%
Cc1ccc(-c2nc(C(=O)NCC3CCOC3)cs2)cc1 (centres undefined) | 9.153% | -10.42%
CCCNC(=O)N1CCc2ccc(S(=O)(=O)N3CCCC3)cc2C1 | -7.83% | 5.539%
CCn1cc(CN2CCCn3nc(CNS(C)(=O)=O)cc3C2)c(C)n1 | -29.61% | -9.67%
Cc1cccc(C(C)NCC2CCS(=O)(=O)CC2)c1 (centres undefined) | -49.49% | -2.843%
[H][C@@]12CCN(Cc3nc(C)cs3)C[C@@]1([H])O[C@@H](c1nnc(C)[nH]1)C2 | -223.2% | -7.718%
CS(=O)(=O)c1snnc1C1CCCN(Cc2ccncc2)C1 (centres undefined) | 1.175% | -10.94%
O=C(O)C(F)(F)F.[H][C@]12CN(c3ncccn3)C[C@@]1(C(=O)N(C)C)CCCN(S(=O)(=O)CC)C2 | 20.36% | 3.419%
CN(C)C1Cc2ccccc2N(S(=O)(=O)c2ccccc2C#N)C1 (centres undefined) | -51.22% | -6.079%
CN(CC(=O)Nc1cc(-c2cc(Cl)cc(Cl)c2)[nH]n1)S(C)(=O)=O | 1.403% | -1.53%
CN(Cc1ccsc1)C(=O)c1cccc(S(=O)(=O)NCC2CCCO2)c1 (centres undefined) | - | -38.15%
Cc1ccc(N(CCC#N)C(=O)CCc2cscn2)cc1C | 0.5708% | 2.869%
CC(=O)NCC1CCN(c2ccnc3ccc(Br)cc23)CC1 | -27.46% | -0.4823%
CC(c1nc(C2CC2)no1)N1CCN(Cc2cccc(F)c2F)CC1 (centres undefined) | 24.77% | 2.132%
COCC(=O)N1CCCC2(CCN(c3ccccc3)C2=O)C1 (centres undefined) | -31.05% | 7.235%

8 of the entries, repeated:

* CN(C)CCCC(=O)NC1CC(C)(C)Cc2nc(C(C)(C)C)ncc21 (centres undefined) : A: -20.81%; B: 0.4964%
* Cc1nc(CN(CCS(C)(=O)=O)C(C)C)no1 : A: -3.501%; B: 2.553%
* COc1ccc([C@@H]2CN(C(=O)Cc3cccs3)C[C@H]2NC(C)=O)cc1 : A: -92.6%; B: -6.817%
* [H][C@@]12CCN(Cc3nc(C)cs3)C[C@@]1([H])O[C@@H](c1nnc(C)[nH]1)C2 : A: -223.2%; B: -7.718%
* Cn1cc(C(=O)N2CCCC(Cc3cncc4ccccc34)C2)cn1 (centres undefined) : A: -6.792%; B: -0.03361%
* Cc1ccc(-c2nc(C(=O)NCC3CCOC3)cs2)cc1 (centres undefined) : A: 9.153%; B: -10.42%
* O=C(Cn1nc2c(cc1=O)CCCC2)NC(C(=O)O)c1ccccc1 (centres undefined) : B: 1.791%
* CC(c1nc(C2CC2)no1)N1CCN(Cc2cccc(F)c2F)CC1 (centres undefined) : A: 24.77%; B: 2.132%

Source: ChEMBL document CHEMBL3988442, “University of Dundee, Small-Polar-MMV Screening Library” (2021).